# From the supplement of paper PMC12542422
# Counter-ions that a name gives are not always drawn. ± gives the standard deviation of the averaged measurements. The list shows a part of the results. Values are raw readings; no control value is given beside them.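 Across three biological replicates, HeLa cells were imaged for ribosome assembly using ENP1 staining (export block present or absent) or inducible tagged ribosomal protein reporters. Machine learning classified each cell's signal localization relative to DMSO controls. Hits exceeded the DMSO false-positive mean by five standard deviations and were then visually confirmed.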
# Columns and labels:
# [1] = test system: HeLa K (ENP1 immunofluorescence, +LMB); test: fraction of cells with nucleolar or nucleolar/nucleoplasmic ENP1 signal (MainHitrate); higher = more cells with nucleolar/nuclear readout signal (for ENP1 -LMB: less RNAPI inhibition; for +LMB ENP1 and RP reporters: stronger nuclear/nucleolar retention, i.e. ribosome biogenesis defect); conditions: concentration: 1 µM; treatment time: 6 h; ENP1 +LMB; leptomycin B: 20 nM, last 1.5 h
# [2] = test system: HeLa K (ENP1 immunofluorescence, no LMB); test: as above; conditions: concentration: 1 µM; treatment time: 6 h; ENP1 -LMB; leptomycin B: none
# HeLa RPS2-YFP reporter = test: fraction of reporter-positive cells with nuclear (nucleolar or nucleolar/nucleoplasmic) RPS2-YFP (MainHitrate); higher = more cells with nucleolar/nuclear readout signal (for ENP1 -LMB: less RNAPI inhibition; for +LMB ENP1 and RP reporters: stronger nuclear/nucleolar retention, i.e. ribosome biogenesis defect); conditions: concentration: 1 µM; treatment time: 6 h
# HeLa RPL29-GFP reporter = test: fraction of reporter-positive cells with nuclear (nucleolar or nucleolar/nucleoplasmic) RPL29-GFP (MainHitrate); higher = more cells with nucleolar/nuclear readout signal (for ENP1 -LMB: less RNAPI inhibition; for +LMB ENP1 and RP reporters: stronger nuclear/nucleolar retention, i.e. ribosome biogenesis defect); conditions: concentration: 1 µM; treatment time: 6 h
SMILES,fraction [1],fraction [2],fraction of reporter-positive cells with nuclear (HeLa RPS2-YFP reporter),fraction of reporter-positive cells with nuclear (HeLa RPL29-GFP reporter)
Oc1ccc(OC2CCCCO2)cc1 (configuration not stated) [Deoxyarbutin],0.102 ± 0.14,0.991 ± 0.015,0.136 ± 0.1,0.2 ± 0.074
c1ccc(-c2ccc(C(c3ccccc3)n3ccnc3)cc2)cc1 (configuration not stated) [Bifonazole],0.112 ± 0.15,0.99 ± 0.017,0.0977 ± 0.071,0.241 ± 0.075
CCC(=O)NCC[C@@H]1CCc2ccc3c(c21)CCO3 [Ramelteon (TAK-375)],0.104 ± 0.11,0.9982 ± 0.003,0.109 ± 0.072,0.201 ± 0.062
COc1ccc(C(=O)CC(=O)c2ccc(C(C)(C)C)cc2)cc1 [Avobenzone (Parsol 1789)],0.18 ± 0.28,0.987 ± 0.023,0.114 ± 0.065,0.227 ± 0.092
COc1ccccc1OCC(O)CN1CCN(CC(=O)Nc2c(C)cccc2C)CC1 (configuration not stated) [Ranolazine dihydrochloride],0.0903 ± 0.084,0.9979 ± 0.0036,0.118 ± 0.039,0.212 ± 0.058
CC(=O)N1CCN(c2ccc(OCC3COC(Cn4ccnc4)(c4ccc(Cl)cc4Cl)O3)cc2)CC1 (configuration not stated) [Ketoconazole],0.0862 ± 0.076,0.9986 ± 0.0024,0.103 ± 0.076,0.205 ± 0.091
CC(C)(CO)[C@@H](O)C(=O)NCCC(=O)O [Pantothenic acid (pantothenate)],0.0918 ± 0.12,0.9963 ± 0.0064,0.121 ± 0.074,0.233 ± 0.06
CN(CCOc1ccc(CC2SC(=O)NC2=O)cc1)c1ccccn1 (configuration not stated) [Rosiglitazone maleate],0.133 ± 0.2,0.9974 ± 0.0045,0.101 ± 0.08,0.204 ± 0.077
COCCOC(=O)C1=C(C)NC(C)=C(C(=O)OC/C=C/c2ccccc2)C1c1cccc([N+](=O)[O-])c1 (configuration not stated) [Cilnidipine],0.0833 ± 0.046,0.9978 ± 0.0038,0.0993 ± 0.094,0.251 ± 0.031
CCCCc1nc(Cl)c(CO)n1Cc1ccc(-c2ccccc2-c2nnn[nH]2)cc1 [Losartan potassium],0.133 ± 0.15,0.9979 ± 0.0036,0.0986 ± 0.051,0.171 ± 0.079
CCCCCCCCCCCCCCCCO [1-Hexadecanol],0.0704 ± 0.074,0.99 ± 0.017,0.137 ± 0.1,0.219 ± 0.08
CN(C)CCc1c[nH]c2ccc(Cn3cncn3)cc12 [Rizatriptan Benzoate (Maxalt)],0.0972 ± 0.088,0.9982 ± 0.0031,0.11 ± 0.074,0.2 ± 0.074
O=C(O)Cc1ccccc1Nc1c(Cl)cccc1Cl [Diclofenac Potassium],0.132 ± 0.19,0.983 ± 0.03,0.111 ± 0.099,0.206 ± 0.032
Cc1ccc(N(CC2=NCCN2)c2cccc(O)c2)cc1 [Phentolamine mesilate],0.138 ± 0.2,0.9948 ± 0.0089,0.129 ± 0.057,0.223 ± 0.061
C[C@@H]1C[C@H]2[C@@H]3C[C@H](F)C4=CC(=O)C=C[C@]4(C)[C@@]3(F)[C@@H](O)C[C@]2(C)[C@@]1(O)C(=O)CO [Flumethasone],0.09 ± 0.12,0.987 ± 0.023,0.155 ± 0.14,0.255 ± 0.11
"CC(C)(C)C(=O)OCOP(=O)(COCCn1cnc2c(N)ncnc21)OCOC(=O)C(C)(C)C [Adefovir Dipivoxil (Preveon, Hepsera)]",0.114 ± 0.14,0.9979 ± 0.0036,0.0909 ± 0.028,0.149 ± 0.048
Nc1nc(CC(=O)Nc2ccc(CCNC[C@H](O)c3ccccc3)cc2)cs1 [Mirabegron (YM178)],0.0917 ± 0.13,0.991 ± 0.015,0.115 ± 0.11,0.211 ± 0.07
CN(C)CCC(c1ccc(Br)cc1)c1ccccn1 (configuration not stated) [Brompheniramine],0.0622 ± 0.06,0.99 ± 0.017,0.108 ± 0.085,0.226 ± 0.044
CCc1ccc(CCOc2ccc(CC3SC(=O)NC3=O)cc2)nc1 (configuration not stated) [Pioglitazone hydrochloride (Actos)],0.156 ± 0.24,0.9956 ± 0.0076,0.11 ± 0.056,0.223 ± 0.068
Nc1ccn([C@@H]2O[C@H](CO)[C@@H](O)C2(F)F)c(=O)n1 [Gemcitabine (Gemzar)],0.0946 ± 0.074,0.9974 ± 0.0046,0.0667 ± 0.041,0.138 ± 0.042
COc1cc2nccc(Oc3ccc(NC(=O)C4(C(=O)Nc5ccc(F)cc5)CC4)cc3)c2cc1OC [XL-184 (Cabozantinib)],0.0473 ± 0.024,0.9978 ± 0.0039,0.0933 ± 0.086,0.239 ± 0.083
CNCCc1ccccn1 [Betahistine 2HCl],0.0925 ± 0.14,0.99 ± 0.018,0.133 ± 0.11,0.208 ± 0.074

SMILES,fraction [1],fraction [2],fraction of reporter-positive cells with nuclear (HeLa RPS2-YFP reporter),fraction of reporter-positive cells with nuclear (HeLa RPL29-GFP reporter)
COC(=O)[C@H]1[C@H]2C[C@@H]3c4[nH]c5cc(OC)ccc5c4CCN3C[C@H]2C[C@@H](OC(=O)c2cc(OC)c(OC)c(OC)c2)[C@@H]1OC [Reserpine],0.0701 ± 0.065,0.9988 ± 0.0021,0.121 ± 0.094,0.194 ± 0.019
CC(C)CC(N)=O [Isovaleramide],0.0589 ± 0.074,0.989 ± 0.02,0.127 ± 0.1,0.208 ± 0.087
CC(C(=O)O)c1cccc(Oc2ccccc2)c1 (configuration not stated) [Fenoprofen calcium hydrate],0.194 ± 0.31,0.969 ± 0.053,0.113 ± 0.1,0.202 ± 0.059
CCC[C@H](NC(=O)[C@@H]1[C@H]2CCC[C@H]2CN1C(=O)[C@@H](NC(=O)[C@@H](NC(=O)c1cnccn1)C1CCCCC1)C(C)(C)C)C(=O)C(=O)NC1CC1 [Telaprevir (VX-950)],0.0904 ± 0.086,0.9987 ± 0.0022,0.119 ± 0.076,0.2 ± 0.052
CS(=O)(=O)Nc1ccc([N+](=O)[O-])cc1Oc1ccccc1 [Nimesulide],0.0986 ± 0.12,0.9959 ± 0.0072,0.148 ± 0.08,0.237 ± 0.11
CC(=O)NS(=O)(=O)c1ccc(N)cc1 [sulfacetamide sodium],0.119 ± 0.17,0.992 ± 0.015,0.12 ± 0.1,0.218 ± 0.054
CCCN[C@H]1CCc2nc(N)sc2C1 [Pramipexole dihydrochloride monohydrate],0.101 ± 0.14,0.992 ± 0.015,0.13 ± 0.047,0.219 ± 0.069
C=C1/C(=C\C=C2/CCC[C@]3(C)[C@@H]([C@H](C)CCCC(C)(C)O)CC[C@@H]23)C[C@@H](O)C[C@@H]1O [Calcitriol (Rocaltrol)],0.067 ± 0.027,0.9987 ± 0.0022,0.0996 ± 0.076,0.212 ± 0.041
CCCCC1=NC2(CCCC2)C(=O)N1Cc1ccc(-c2ccccc2-c2nnn[nH]2)cc1 [Irbesartan (Avapro)],0.0826 ± 0.061,0.9987 ± 0.0023,0.115 ± 0.095,0.224 ± 0.056
CO[C@H]1C(=O)[C@]2(C)[C@@H](OC)C[C@H]3OC[C@@]3(OC(C)=O)[C@H]2[C@H](OC(=O)c2ccccc2)[C@]2(O)C[C@H](OC(=O)[C@H](O)[C@@H](NC(=O)OC(C)(C)C)c3ccccc3)C(C)=C1C2(C)C [Cabazitaxel (Jevtana)],0.119 ± 0.15,0.986 ± 0.025,0.214 ± 0.16,0.276 ± 0.12
NC[C@H]1O[C@H](O[C@H]2[C@H](O)[C@@H](O[C@H]3O[C@H](CO)[C@@H](O)[C@H](N)[C@H]3O)[C@H](N)C[C@@H]2N)[C@H](N)C[C@@H]1O [Tobramycin],0.132 ± 0.2,0.9946 ± 0.0093,0.103 ± 0.059,0.202 ± 0.061
"CN1CCN2c3ncccc3Cc3ccccc3C2C1 (configuration not stated) [Mirtazapine (Remeron, Avanza)]",0.1 ± 0.14,0.989 ± 0.019,0.112 ± 0.065,0.214 ± 0.075
Nc1ccc(S(=O)(=O)Nc2ncccn2)cc1 [Sulfadiazine],0.114 ± 0.14,0.9989 ± 0.002,0.123 ± 0.08,0.194 ± 0.079
CC1(C)Cc2c(-c3ccccc3)c(-c3ccc(Cl)cc3)c(CC(=O)O)n2C1 [Licofelone],0.133 ± 0.2,0.992 ± 0.013,0.127 ± 0.089,0.237 ± 0.09
CN(C)c1ccc(O)c2c1C[C@H]1C[C@H]3[C@H](N(C)C)C(O)=C(C(N)=O)C(=O)[C@@]3(O)C(O)=C1C2=O [Minocycline HCl],0.0611 ± 0.089,0.99 ± 0.017,0.116 ± 0.081,0.284 ± 0.1
O=C(O)C[C@H](O)C[C@H](O)/C=C/c1c(C2CC2)nc2ccccc2c1-c1ccc(F)cc1 [Pitavastatin calcium (Livalo)],0.114 ± 0.14,0.9985 ± 0.0025,0.115 ± 0.076,0.215 ± 0.081
C[N+]1(C)CCC(=C(c2ccccc2)c2ccccc2)CC1 [Diphemanil methylsulfate],0.0618 ± 0.059,0.994 ± 0.01,0.12 ± 0.11,0.198 ± 0.065
C[C@H]1C[C@H]2[C@@H]3CCC4=CC(=O)C=C[C@]4(C)[C@H]3C(=O)C[C@]2(C)[C@@]1(O)C(=O)CO [Betapar (Meprednisone)],0.1 ± 0.074,0.9983 ± 0.0029,0.107 ± 0.08,0.257 ± 0.1
CC(=O)OCC(=O)[C@H]1CC[C@H]2[C@@H]3CCC4=CC(=O)CC[C@]4(C)[C@H]3CC[C@]12C [Deoxycorticosterone acetate],0.0429 ± 0.057,0.985 ± 0.026,0.142 ± 0.12,0.225 ± 0.066
COc1cc(C)c(/C=C/C(C)=C/C=C/C(C)=C/C(=O)O)c(C)c1C [Acitretin],0.0924 ± 0.11,0.9979 ± 0.0036,0.109 ± 0.075,0.198 ± 0.087
CN[C@H]1CC[C@@H](c2ccc(Cl)c(Cl)c2)c2ccccc21 [Sertraline HCl],0.0914 ± 0.13,0.986 ± 0.024,0.11 ± 0.1,0.225 ± 0.062

# Entries of single compounds, quoted from the list. Order of values: fraction [1]	fraction [2]	fraction of reporter-positive cells with nuclear (HeLa RPS2-YFP reporter)	fraction of reporter-positive cells with nuclear (HeLa RPL29-GFP reporter)
# CC(=O)OCC(=O)[C@H]1CC[C@H]2[C@@H]3CCC4=CC(=O)CC[C@]4(C)[C@H]3CC[C@]12C [Deoxycorticosterone acetate] is listed with 0.0429 ± 0.057	0.985 ± 0.026	0.142 ± 0.12	0.225 ± 0.066
# CC(C)CC(N)=O [Isovaleramide] is listed with 0.0589 ± 0.074	0.989 ± 0.02	0.127 ± 0.1	0.208 ± 0.087
# C[N+]1(C)CCC(=C(c2ccccc2)c2ccccc2)CC1 [Diphemanil methylsulfate] is listed with 0.0618 ± 0.059	0.994 ± 0.01	0.12 ± 0.11	0.198 ± 0.065
